Measured data: PubChem BioAssay AID1259308 (NCATS, 2017)
Test: 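Genes whose loss raises luciferase production in HEK293 cells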 (primary screen). Cells: human HEK293 embryonic kidney cells stably expressing firefly luciferase (HEK-CMV-Luc2-Hygro). Knock-down reagent: single siRNA against human genes, 0.8 pmol siRNA per well. Time to read-out: 72 h. Measured: 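Luciferase light (ONE-Glo) measured on one replicate plate set and viability (CellTiter-Glo) on the other, scaled to a negative control siRNA, with robust z-scores and luciferase per cell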. Reading the numbers: total luciferase, z-score and total luciferase, % of control: higher = more reporter protein produced; luciferase per cell, z-score: higher = more reporter output per viable cell; viable cells, % of control: higher = more viable cells. Call rule: 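Active when the median/MAD z-score for overall luciferase is greater than 3; a gene was taken forward for validation with new siRNAs if at least two of its three siRNAs passed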. Calls: active = raised luciferase; inactive = no rise.
In all, the deposit lists about 59,000 reagents; shown is an unselected part. Over the whole deposit, about 1,510 (2.6%) were called active. 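Calls use total luciferase alone and ignore viability, so some active siRNAs may act by altering cell number.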 The numbers tell different reagents against one gene apart.

| gene knocked down | siRNA no. | total luciferase, z-score | total luciferase, % of control | luciferase per cell, z-score | viable cells, % of control | outcome |
| --- | --- | --- | --- | --- | --- | --- |
| CMYA5 | 1 | -0.178 | 78.3 | -0.372 | 96.5 | inactive |
| CMYA5 | 2 | -0.561 | 70.7 | -0.433 | 88.6 | inactive |
| CMYA5 | 3 | 0.631 | 94.4 | 0.922 | 82.8 | inactive |
| TYW3 | 1 | 8.67 | 254 | 5.22 | 71.9 | active |
| TYW3 | 2 | -0.476 | 72.4 | 0.46 | 71.7 | inactive |
| TYW3 | 3 | -1.06 | 60.7 | 8.73 | 6.82 | inactive |
| GADD45G | 1 | 0.112 | 84.1 | -0.113 | 96.8 | inactive |
| GADD45G | 2 | 0.512 | 92.1 | 0.376 | 93.2 | inactive |
| GADD45G | 3 | -0.766 | 66.7 | -0.514 | 85.3 | inactive |
| GNB5 | 1 | 0.0819 | 83.5 | -0.0512 | 94.6 | inactive |
| GNB5 | 2 | 1.73 | 116 | 2.22 | 72.3 | inactive |
| GNB5 | 3 | 4.25 | 166 | 2.23 | 103 | active |
| DOCK1 | 1 | -0.997 | 62.1 | -1.02 | 90.8 | inactive |
| DOCK1 | 2 | -0.0262 | 81.4 | -0.216 | 96.2 | inactive |
| DOCK1 | 3 | -0.552 | 70.9 | -1.02 | 104 | inactive |
| LIAS | 1 | -1.94 | 43.2 | -1.27 | 67.5 | inactive |
| LIAS | 2 | -0.891 | 64.2 | 0.0469 | 70.8 | inactive |
| LIAS | 3 | -2.42 | 33.8 | -1.59 | 57.4 | inactive |
| OR51I2 | 1 | 0.886 | 99.5 | 0.237 | 104 | inactive |
| OR51I2 | 2 | -0.735 | 67.3 | -0.53 | 86.4 | inactive |
| OR51I2 | 3 | 0.812 | 98 | 1.08 | 82.3 | inactive |
| ZDHHC22 | 1 | 1.05 | 103 | 1.25 | 82.7 | inactive |
| ZDHHC22 | 2 | 0.16 | 85.1 | 0.427 | 84.9 | inactive |
| ZDHHC22 | 3 | 0.434 | 90.5 | 1.52 | 67.8 | inactive |
| AP2A1 | 1 | 0.166 | 85.2 | 0.19 | 90.5 | inactive |
| AP2A1 | 2 | -1.05 | 60.9 | -0.492 | 77.5 | inactive |
| AP2A1 | 3 | -0.605 | 69.9 | -1.43 | 114 | inactive |
| CFHR4 | 1 | -0.394 | 74.1 | -0.144 | 86 | inactive |
| CFHR4 | 2 | -0.467 | 72.6 | -0.506 | 92.7 | inactive |
| CFHR4 | 3 | 0.885 | 99.5 | 0.77 | 90.8 | inactive |
| FIBIN | 1 | -1.29 | 56.1 | -0.206 | 66.2 | inactive |
| FIBIN | 2 | -2.2 | 38.1 | -1.54 | 64 | inactive |
| FIBIN | 3 | -1.74 | 47.2 | -1.07 | 70 | inactive |
| IL12A | 1 | -0.333 | 75.3 | -0.924 | 107 | inactive |
| IL12A | 2 | 0.201 | 85.9 | -0.228 | 102 | inactive |
| IL12A | 3 | 1.66 | 115 | 1.28 | 91.7 | inactive |
| PLEKHM1P1 | 1 | -0.304 | 75.8 | -0.0988 | 87 | inactive |
| PLEKHM1P1 | 2 | -0.368 | 74.6 | -0.336 | 91.1 | inactive |
| PLEKHM1P1 | 3 | -0.873 | 64.5 | -0.522 | 82.7 | inactive |
